Results deposited as PubChem BioAssay AID1259281 (Sanger Institute, 2017)

Purpose: 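Find knock-downs that kill colorectal cancer cells alone or strengthen targeted drugs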 (primary screen)
Cells: human COLO678 colorectal cancer cell line
Reagents: siRNA pool against human genes
Treatment: anchor drugs at fixed doses: BYL719 1 µM, cetuximab 5 µg/ml or trametinib 10 nM; DMSO vehicle for the siRNA-alone arm
Detection: 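Cell viability compared with non-targeting pool wells, averaged over replicates; knock-down-alone effect also as robust z-score; synergy scores set knock-down plus drug against expected joint effect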
Direction: robust z-score, siRNA alone: higher = more viable cells; strongly negative means essential; viability, siRNA alone: higher = more surviving cells; synergy score with BYL719 and synergy score with trametinib: higher = stronger synergistic killing with drug
Rule for the call: 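Essential (knock-down alone) when the siRNA-alone robust z-score is below -3; otherwise no change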
Calls: active = essential (knock-down alone); inactive = no change
Shown is one part, drawn at random, of 794 reagents tested. 22 of all reagents (2.8%) count as active. 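Calls rest on knock-down alone only; drug synergy scores play no part in them.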 No viability above 1 is reported: the scale is capped. Not all columns of the deposit are shown. The record does not give: the amount of reagent, the time to read-out.

gene knocked down | robust z-score, siRNA alone | viability, siRNA alone (fraction of control) | synergy score with BYL719 | synergy score with trametinib | Call
SCYL3 | 0.473 | 1 | -0.0225 | -0.0511 | inactive
PIP4K2C | -1.38 | 0.941 | 0.0337 | 0.0208 | inactive
FGFR1 | 0.473 | 1 | -0.0919 | 0.0349 | inactive
BRSK1 | 0.473 | 1 | -0.0903 | 0.0216 | inactive
PRKACG | 0.473 | 1 | -0.0919 | -0.0348 | inactive
MAPK6 | 0.338 | 0.996 | 0.0487 | 0.0388 | inactive
CAMK2A | -0.612 | 0.966 | -0.123 | 0.0121 | inactive
TAB1 | 0.473 | 1 | -0.0919 | 0.00346 | inactive
COASY | -1.57 | 0.935 | 0.0583 | 0.0274 | inactive
NEK2 | 0.473 | 1 | 0.00667 | 0.0497 | inactive
STK38L | 0.473 | 1 | -0.0919 | 0.0731 | inactive
TNK1 | 0.473 | 1 | 0.0811 | 0.0533 | inactive
IKBKG | -0.183 | 0.979 | 0.0015 | 0.0597 | inactive
AAK1 | -3.37 | 0.878 | -0.0444 | -0.0755 | active
CDK11A | 0.473 | 1 | -0.0919 | 0.0585 | inactive
TGFBR3 | 0.473 | 1 | 0.0318 | -0.0187 | inactive
MET | 0.473 | 1 | -0.0295 | 0.0133 | inactive
ASPM | -2.35 | 0.91 | -0.152 | -0.0379 | inactive
NRBP1 | 0.473 | 1 | -0.00867 | 0.0761 | inactive
TNNI3K | 0.473 | 1 | -0.000854 | 0.0556 | inactive
FYN | 0.473 | 1 | -0.0919 | 0.0343 | inactive
MAP4K2 | -0.958 | 0.955 | 0.0133 | 0.027 | inactive
ROR1 | 0.473 | 1 | 0.0241 | 0.0117 | inactive
GUCY2EP | 0.473 | 1 | 0.161 | -0.0315 | inactive
RPS6KA3 | 0.473 | 1 | -0.00372 | 0.142 | inactive
MAP4K1 | -0.0994 | 0.982 | 0.0237 | 0.000914 | inactive
CDK1 | 0.473 | 1 | -0.0686 | -0.157 | inactive
CDK19 | -0.982 | 0.954 | -0.0785 | 0.00292 | inactive
CDK12 | 0.296 | 0.994 | -0.0583 | 0.0114 | inactive
CKS2 | 0.473 | 1 | -0.0919 | 0.0991 | inactive
CTCF | 0.473 | 1 | -0.0745 | -0.0968 | inactive
TBK1 | 0.473 | 1 | 0.168 | 0.0301 | inactive
MAP2K5 | 0.473 | 1 | 0.0422 | 0.0308 | inactive
GRK7 | 0.473 | 1 | 0.168 | 0.0973 | inactive
NLK | 0.473 | 1 | -0.0629 | 0.0754 | inactive
IP6K1 | 0.473 | 1 | -0.0919 | -0.0404 | inactive
GRK5 | 0.473 | 1 | -0.034 | -0.0169 | inactive
MAPKAPK5 | 0.473 | 1 | -0.0919 | -0.0423 | inactive
TEK | 0.473 | 1 | -0.0919 | -0.0074 | inactive
MAP4K3 | -1.18 | 0.947 | -0.14 | -0.0308 | inactive
CDK3 | 0.473 | 1 | -0.0337 | -0.0163 | inactive
CHEK1 | -0.772 | 0.96 | 0.071 | -0.0475 | inactive
ERBB2 | 0.473 | 1 | -0.0919 | 0.0442 | inactive
PRKCZ | 0.473 | 1 | 0.0127 | 0.00522 | inactive
RIOK2 | 0.166 | 0.99 | 0.0348 | -0.07 | inactive
ERN1 | -0.048 | 0.983 | 0.0611 | 0.104 | inactive
RPS6KA2 | -3.85 | 0.863 | -0.00725 | -0.0191 | active
CDC42BPA | 0.473 | 1 | 0.0483 | -0.109 | inactive
PI4K2B | 0.473 | 1 | -0.0919 | 0.0194 | inactive
STKLD1 | -1.12 | 0.949 | -0.0814 | 0.0314 | inactive
BMAL1 | -4.34 | 0.847 | 0.0482 | -0.0318 | active
AK3 | 0.351 | 0.996 | 0.0372 | 0.0522 | inactive
CSNK1E | -2.31 | 0.912 | -0.121 | -0.00581 | inactive
CDK8 | -2.01 | 0.921 | -0.164 | -0.0331 | inactive
BRD4 | 0.473 | 1 | 0.113 | 0.0624 | inactive
IPMK | 0.473 | 1 | -0.0846 | 0.000583 | inactive
SPHK2 | 0.473 | 1 | -0.0919 | -0.0632 | inactive
MAPKAPK2 | 0.473 | 1 | 0.0302 | -0.0719 | inactive
PGK1 | 0.438 | 0.999 | -0.0258 | 0.0297 | inactive
FER | 0.473 | 1 | -0.0919 | -0.0119 | inactive
EPHB4 | -2.5 | 0.906 | -0.0519 | -0.0446 | inactive
ARAF | 0.473 | 1 | -0.0919 | 0.025 | inactive
CSK | 0.473 | 1 | -0.000725 | 0.108 | inactive

Active calls (from the list above):
gene knocked down | robust z-score, siRNA alone | viability, siRNA alone (fraction of control) | synergy score with BYL719 | synergy score with trametinib | Call
AAK1 | -3.37 | 0.878 | -0.0444 | -0.0755 | active
RPS6KA2 | -3.85 | 0.863 | -0.00725 | -0.0191 | active
BMAL1 | -4.34 | 0.847 | 0.0482 | -0.0318 | active
